Out of some 320,000 compounds screened, about 2,100 (0.66%) were called active. Inconclusive results, whose numbers are uncertain, are shown with a selection of clear calls. Calls follow the shape of the dose curve; as a rule, active = well fitted inhibition curve with a large enough effect in the signal ratio, with a control signal flat (not every such curve was filed as active); inconclusive = small, poorly fitted or top-dose-only effect, or effect the other way, or a change in a side signal; inactive = flat fitted curve, though single readings scatter; the % refers to the signal ratio. Potencies of inconclusive entries are doubtful fits and often do not repeat.
assay: qHTS Assay for Lipid Storage Modulators in Drosophila S3 Cells; conditions: BODIPY lipid droplet fluorescence, 18-24 h, cells fed with added oleic acid; lipid storage change, negative = inhibition: at 46.1 µM (top of the series) unless noted
How it was run: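 Laser-scanning cytometry quantifies lipid droplet accumulation (500–530 nm total intensity; droplet/cell object ratio) in oleic acid-fed (400 uM added) Drosophila S3 cells treated with a concentration series. 20 uM Triacsin C defined 100% inhibition.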
% is scaled to controls: 0 for no effect and ±100 for the full control effect; potency is read from the fitted curve at half-maximal effect.

| SMILES | lipid storage change, negative = inhibition | Potency |
| --- | --- | --- |
| O=c1n(Cc2ccccc2Cl)c2sc3c(c2c2ncnn12)CCCC3 | inconclusive: 20.8% | – |
| Cc1cccc(N(CC(=O)NC2CCCC2)C(=O)CCC(=O)Nc2cc(C)on2)c1 | – | inconclusive: 0.651 µM [activator, partial curve, poor fit] |
| CC(=O)Nc1ccn(Cc2c(F)cccc2Cl)n1 | inconclusive: -28.2% | – |
| CCC1(CC)NC(=O)N(CC(=O)OC(C)C(=O)Nc2ccc(Cl)cn2)C1=O (stereo not drawn) | inconclusive | – |
| Cc1ccc(-n2nnnc2SCC(=O)N2CCCCC2)cc1 | inconclusive: 6.8% | – |
| COc1ccc(/C(C)=N/NC(=O)c2ccncc2)cc1[N+](=O)[O-] | inconclusive: 15.8% | – |
| CCSc1cc(N2CCCC2)nc(-c2ccccc2Cl)n1 | inconclusive: 32.7% | – |
| CC1=CC=CN2C1=NC(=O)CC2(C)C(=O)N(CC(=O)NC1CCCC1)Cc1ccccc1 (stereo not drawn) | inconclusive: 287% | – |
| COc1cccc(OCc2cc(C(=O)N(Cc3ccccc3)CC3CC3)no2)c1 | inconclusive: 46.1% | – |
| CC1(C)Cc2c(sc3nc(SCC(=O)NCc4ccco4)n(-c4ccccc4)c(=O)c23)CS1 | – | inconclusive: 16.4 µM [activator, partial curve] |
| COc1ccc(N2CCN(C(=O)[C@H](C)NC(=O)c3ccccc3Cl)CC2)cc1 | – | inconclusive: 0.164 µM [falling, full curve, poor fit] |
| Cc1cc(C)c(S(=O)(=O)NCCn2c(C)cc3ccccc32)c(C)c1 | inconclusive: 15.2% | – |
| O=C(Nc1nc(-c2ccccc2)cs1)c1ccc2c(c1)S(=O)(=O)c1ccccc1C2=O | inconclusive: 1.83% | – |
| Clc1ccccc1/C=C/c1nc(-c2cccnc2)no1 | – | inconclusive: 0.146 µM [activator, full curve, poor fit] |
| CCCNC(=O)c1ccc(Cn2cc(-c3ccc(OC)cc3)nc2C(C)N)cc1 (stereo not drawn) | – | inconclusive: 0.411 µM [falling, partial curve, poor fit] |
| COc1ccc(Br)cc1/C=C/C(=O)Nc1ccc2ccccc2c1 | – | inconclusive: 29.1 µM [falling, single point] |
| COc1cccc(C(=O)C2CCCN(C(=O)c3cccc(C#CC(C)(C)O)c3)C2)c1 (stereo not drawn) | – | inconclusive: 29.1 µM [cytotoxic, single point] |
| COc1ccc(CCNC(=O)CN(C)S(=O)(=O)c2ccc3c(c2)CCC(=O)N3)cc1OC | inconclusive: 63.5% | – |
| CCOC(=O)c1c(-c2ccc(C)o2)csc1NC(=O)CSc1nnnn1-c1ccccc1 | – | inconclusive: 29.1 µM [cytotoxic, single point] |

Reprinted from above, 2 compounds:

| SMILES | lipid storage change, negative = inhibition | Potency |
| --- | --- | --- |
| CCCNC(=O)c1ccc(Cn2cc(-c3ccc(OC)cc3)nc2C(C)N)cc1 (stereo not drawn) | – | inconclusive: 0.411 µM [falling, partial curve, poor fit] |
| COc1ccc(Br)cc1/C=C/C(=O)Nc1ccc2ccccc2c1 | – | inconclusive: 29.1 µM [falling, single point] |

Further records

| SMILES | lipid storage change, negative = inhibition | Potency |
| --- | --- | --- |
| CCN(CC)S(=O)(=O)c1ccc(Cl)c(C(=O)NCc2ccccc2Cl)c1 | inconclusive: -35% | – |
| CN(C)S(=O)(=O)n1cc(/C=C(\NC(=O)c2ccccc2Cl)C(=O)NCCN2CCOCC2)c2ccccc21 | – | inconclusive: 5.17 µM [activator, partial curve] |
| O=C1S/C(=C\c2ccccn2)C(=O)N1Cc1ccccc1F | inconclusive: 29.7% | – |
| O=C(Nc1ccccc1C(=O)O)c1ccc(Cl)c(S(=O)(=O)N2CCOCC2)c1 | inactive: -15.9% | – |
| Cc1ccccc1NC(=O)CSc1n[nH]c(-c2ccco2)n1 | inconclusive: 31.1% | – |
| COCCCNC(=O)/C(C#N)=C1\N=C(NC(=O)c2cccs2)c2ccccc21 | inconclusive: 13.3% | – |
| COc1ccccc1CN(C)C(=O)c1ccccc1SCC(=O)N1CCCC1 | – | inconclusive: 18.4 µM [activator, partial curve, poor fit] |
| O=S(=O)(NNc1ccc(F)cc1F)c1cccc(Cl)c1 | inconclusive: -100% | – |
| CN(N)C(=S)Nc1ccc(F)cc1 | inconclusive: 4.88% | – |
| O=C(c1ccccc1)N(Cc1cccs1)C1CCS(=O)(=O)C1 (stereo not drawn) | inconclusive: -131% | – |
| COc1ccccc1C(=O)NNC(=O)c1ccc(NC(=O)C(C)C)cc1 | – | inconclusive: 7.31 µM [falling, single point] |
| Cc1ccc(OCCN2CCCCCC2)c(C)c1 | – | inconclusive: 20.6 µM [falling, single point] |
| CCOC(=O)c1c(C)c(C(=O)N2CCN(C(=O)c3ccco3)CC2)c(C)n1C | inconclusive: -30.3% | – |
| CCC(=O)Nc1cccc(NC(=O)CN2CCN(c3ccccc3OC)CC2)c1 | inconclusive: 28.2% | – |
| CCN(CC(=O)NCc1cccs1)C(=O)c1ccc(S(=O)(=O)Nc2cccc(C)c2C)cc1 | inconclusive: -19.1% | – |
| O=C(OCC(=O)N1CCCc2ccccc21)c1cnc(Cl)c(Cl)c1 | inconclusive: -51.1% | – |
| Cc1ccsc1C1CC(=O)OC2=C1C(=O)CC(C)(C)C2 (stereo not drawn) | inconclusive: 9.29% | – |
| Cc1c(C(=O)N2CCc3ccccc3C2)sc2nc(-c3ccccc3)cn12 | inconclusive: -169% | – |
| CN1CCc2c(sc3c2c(=O)n(-c2ccccc2)c2nnc(SCc4ccccc4)n32)C1 | inconclusive: 58.4% | – |

From PubChem BioAssay AID2685 (National Center for Advancing Translational Sciences (NCATS), 2010)
